Results deposited as PubChem BioAssay AID743121 (NCATS, 2013)
This is a random part of about 26,000 deposited reagents. 167 of all reagents (0.63%) count as active. 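Calls are per gene from RSA p-values that are not deposited; an individual active-marked siRNA can sensitise only weakly.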 Unmarked entries are inactive. Reagents against one gene are numbered here. Not all columns of the deposit are shown.

- Test: 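Partners whose loss is lethal together with topoisomerase I blockade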 (primary screen)
- Cells: MDA-MB-231 cells, a human breast cancer line
- Reagents: single siRNA against human genes, 20 nM siRNA (0.8 pmol per well)
- Time to read-out: 120 h (drug added 48 h after transfection, read 72 h later)
- Treatment: camptothecin 20 nM (about EC30) for 72 h; vehicle 0.1% DMSO in parallel plates
- Measurement: 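Cell viability by ATP luminescence (CellTiter-Glo) as % of non-targeting siRNA wells, and the log2 ratio of viability without drug over viability with camptothecin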
- Scale: log2 vehicle/camptothecin viability: higher = stronger sensitisation to camptothecin
- Active means: 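Each gene scored by redundant siRNA activity (RSA) over its individual siRNA ratios; a gene is called active at p < 0.001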

After knock-down of PRSS37 #1, the screen gave log2 vehicle/camptothecin viability 0.196. For PRSS37 #2 the deposit lists log2 vehicle/camptothecin viability -0.0893. PRSS37 #3 showed log2 vehicle/camptothecin viability 0.301. PRSS37 #4 gave log2 vehicle/camptothecin viability 0.155. LDLRAP1 #1 gave log2 vehicle/camptothecin viability 0.51. For LDLRAP1 #2, the values are log2 vehicle/camptothecin viability 0.305.

Silencing of LDLRAP1 #3 resulted in: log2 vehicle/camptothecin viability -0.226. For LDLRAP1 #4, the entry reads log2 vehicle/camptothecin viability -0.114. For TRIM17 #1, the entry reads log2 vehicle/camptothecin viability 0.147. TRIM17 #2 scored log2 vehicle/camptothecin viability -0.0327. Against TRIM17 #3, the values are log2 vehicle/camptothecin viability -0.847. Silencing of TRIM17 #4 gave: log2 vehicle/camptothecin viability -0.35.

Silencing of CDK4 #1 came out at: log2 vehicle/camptothecin viability -0.0254. Knock-down of CDK4 #2 gave: log2 vehicle/camptothecin viability -0.666. For CDK4 #3 the deposit lists log2 vehicle/camptothecin viability -0.273. CDK4 #4 scored log2 vehicle/camptothecin viability -0.196. Against MASP2 #1 the deposit lists log2 vehicle/camptothecin viability 0.105. Against MASP2 #2 the deposit lists log2 vehicle/camptothecin viability -0.141.

Against MASP2 #3, the values are log2 vehicle/camptothecin viability 0.133. Against MASP2 #4, the values are log2 vehicle/camptothecin viability 0.0333. Against MASP2 #5 the deposit lists log2 vehicle/camptothecin viability -0.0157. With knock-down of MASP2 #6 the results were log2 vehicle/camptothecin viability -0.0813. For PDE10A #1, the entry reads log2 vehicle/camptothecin viability -0.222. PDE10A #2 gave log2 vehicle/camptothecin viability -0.159.

For PDE10A #3, the values are log2 vehicle/camptothecin viability -0.452. After knock-down of PDE10A #4 the results were log2 vehicle/camptothecin viability -0.27. MAPKAPK3 #1 showed log2 vehicle/camptothecin viability -0.493. MAPKAPK3 #2 gave log2 vehicle/camptothecin viability 0.0367. After knock-down of MAPKAPK3 #3 the results were log2 vehicle/camptothecin viability -0.0865. Against MAPKAPK3 #4, the values are log2 vehicle/camptothecin viability -0.519.

With knock-down of DCC #1, the screen gave log2 vehicle/camptothecin viability 0.888. Knock-down of DCC #2 came out at: log2 vehicle/camptothecin viability -0.495. DCC #3 scored log2 vehicle/camptothecin viability -0.38. DCC #4 scored log2 vehicle/camptothecin viability -0.493. Knock-down of RAB21 #1 gave: log2 vehicle/camptothecin viability -0.128. RAB21 #2 scored log2 vehicle/camptothecin viability -0.3.

For RAB21 #3 the deposit lists log2 vehicle/camptothecin viability -0.317. Against RAB21 #4, the entry reads log2 vehicle/camptothecin viability 0.035. Against SIM1 #1, the entry reads log2 vehicle/camptothecin viability -0.22. Knock-down of SIM1 #2 came out at: log2 vehicle/camptothecin viability -0.349. SIM1 #3 showed log2 vehicle/camptothecin viability -0.166. OXSR1 #1 showed log2 vehicle/camptothecin viability -0.146.

With knock-down of OXSR1 #2 the results were log2 vehicle/camptothecin viability -0.285. Knock-down of OXSR1 #3 gave: log2 vehicle/camptothecin viability 0.0377. After knock-down of OXSR1 #4, the screen gave log2 vehicle/camptothecin viability 0.00274.

Targets listed so far whose gene name starts with T or t:
TRIM17 #1 — log2 vehicle/camptothecin viability = 0.147
TRIM17 #2 — log2 vehicle/camptothecin viability = -0.0327
TRIM17 #3 — log2 vehicle/camptothecin viability = -0.847
TRIM17 #4 — log2 vehicle/camptothecin viability = -0.35
